From article PMC3633961 come the findings set out here.

The chains behind the UniProt entries cited, without tags or fusion partners. Residues count along the entry.
UniProt Q15058: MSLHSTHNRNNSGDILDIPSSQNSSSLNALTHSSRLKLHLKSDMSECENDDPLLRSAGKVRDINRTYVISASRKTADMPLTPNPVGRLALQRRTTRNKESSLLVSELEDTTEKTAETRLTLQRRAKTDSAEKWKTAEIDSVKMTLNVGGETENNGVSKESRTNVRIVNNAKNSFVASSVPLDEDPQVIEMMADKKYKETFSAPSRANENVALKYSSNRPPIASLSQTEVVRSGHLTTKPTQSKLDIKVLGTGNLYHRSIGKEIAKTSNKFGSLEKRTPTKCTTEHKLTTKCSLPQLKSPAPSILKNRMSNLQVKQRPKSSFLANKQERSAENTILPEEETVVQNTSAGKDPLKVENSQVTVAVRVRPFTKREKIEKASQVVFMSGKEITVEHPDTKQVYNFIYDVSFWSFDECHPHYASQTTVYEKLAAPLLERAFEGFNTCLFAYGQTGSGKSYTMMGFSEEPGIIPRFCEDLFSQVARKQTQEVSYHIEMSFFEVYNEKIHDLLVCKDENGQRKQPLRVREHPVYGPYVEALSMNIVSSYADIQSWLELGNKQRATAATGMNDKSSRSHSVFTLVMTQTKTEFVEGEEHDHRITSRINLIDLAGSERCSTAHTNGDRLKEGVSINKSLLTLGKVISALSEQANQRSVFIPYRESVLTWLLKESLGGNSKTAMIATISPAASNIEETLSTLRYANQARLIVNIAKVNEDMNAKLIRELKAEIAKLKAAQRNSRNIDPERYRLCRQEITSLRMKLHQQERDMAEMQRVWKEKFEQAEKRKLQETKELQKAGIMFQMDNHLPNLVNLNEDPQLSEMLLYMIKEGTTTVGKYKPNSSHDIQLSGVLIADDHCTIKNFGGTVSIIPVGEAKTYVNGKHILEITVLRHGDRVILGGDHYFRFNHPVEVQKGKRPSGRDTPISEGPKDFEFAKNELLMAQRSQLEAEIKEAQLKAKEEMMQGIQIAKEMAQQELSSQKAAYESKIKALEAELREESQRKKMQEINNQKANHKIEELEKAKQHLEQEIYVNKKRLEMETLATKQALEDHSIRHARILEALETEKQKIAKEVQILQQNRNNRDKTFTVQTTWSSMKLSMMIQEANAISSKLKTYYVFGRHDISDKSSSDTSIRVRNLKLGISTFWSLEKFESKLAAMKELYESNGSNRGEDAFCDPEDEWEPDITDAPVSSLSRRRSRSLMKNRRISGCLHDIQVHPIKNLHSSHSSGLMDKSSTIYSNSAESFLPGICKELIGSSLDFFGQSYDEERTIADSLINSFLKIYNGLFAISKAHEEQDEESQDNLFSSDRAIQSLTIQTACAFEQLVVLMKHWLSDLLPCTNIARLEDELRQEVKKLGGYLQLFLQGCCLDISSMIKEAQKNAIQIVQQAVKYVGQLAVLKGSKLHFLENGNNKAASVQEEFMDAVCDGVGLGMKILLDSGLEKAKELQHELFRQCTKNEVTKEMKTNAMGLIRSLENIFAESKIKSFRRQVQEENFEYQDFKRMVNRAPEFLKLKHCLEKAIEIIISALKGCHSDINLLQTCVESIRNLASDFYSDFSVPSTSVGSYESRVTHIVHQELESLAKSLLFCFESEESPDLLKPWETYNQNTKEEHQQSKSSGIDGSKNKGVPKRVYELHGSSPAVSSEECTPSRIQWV
UniProt P43121, residues 24-646: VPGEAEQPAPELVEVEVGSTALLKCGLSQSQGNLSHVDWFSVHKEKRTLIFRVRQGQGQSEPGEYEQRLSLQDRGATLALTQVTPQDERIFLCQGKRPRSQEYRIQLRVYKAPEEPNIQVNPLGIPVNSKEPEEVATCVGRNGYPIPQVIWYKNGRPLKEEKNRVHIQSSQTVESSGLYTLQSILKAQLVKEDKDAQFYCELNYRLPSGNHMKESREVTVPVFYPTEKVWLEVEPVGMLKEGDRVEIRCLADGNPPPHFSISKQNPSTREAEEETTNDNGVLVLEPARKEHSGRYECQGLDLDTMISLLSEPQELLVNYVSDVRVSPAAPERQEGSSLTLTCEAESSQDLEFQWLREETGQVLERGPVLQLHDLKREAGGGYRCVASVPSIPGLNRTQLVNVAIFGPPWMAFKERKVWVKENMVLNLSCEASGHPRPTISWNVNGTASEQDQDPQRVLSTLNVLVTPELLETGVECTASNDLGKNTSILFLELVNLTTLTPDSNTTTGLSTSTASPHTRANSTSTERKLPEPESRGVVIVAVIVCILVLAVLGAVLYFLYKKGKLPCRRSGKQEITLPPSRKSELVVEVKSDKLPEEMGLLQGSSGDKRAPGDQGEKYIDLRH

For experiment [1], the target named is Flag-tagged KIF14 (human) (UniProt Q15058). Put plainly: co-IP; exogenous immunoprecipitation from lysate of HEK293T cells transfected with the indicated plasmids; RIPA lysis buffer, specific antibody and protein A Sepharose, washed four times with PBST; immunoblotting.
The target of experiment [2] is KIF14 (endogenous) (human (endogenous in H460)) (UniProt Q15058). Put plainly: co-IP; endogenous immunoprecipitation from lysate of H460 cells; immunoblotting with the indicated antibodies.

No constants are given. Whether binding was seen depends on the method and setting. Binding seen in cells or lysates may run through a third protein. Some results given as binding are weak or reduced against the parent protein; the word gives no strength. For part of these data: Tags and fused reporters may be left off the sequences shown.

Turning to “HA-tagged melanoma cell adhesion molecule (MCAM) (from UniProt P43121-1 24-646)”, the binding result in experiment [1] is “binds”.

B1: HA-tagged cadherin 11 (CDH11) (protein, UniProt P55287-1 54-796)
chain: GWVWNQFFVIEEYTGPDPVLVGRLHSDIDSGDGNIKYILSGEGAGTIFVIDDKSGNIHATKTLDREERAQYTLMAQAVDRDTNRPLEPPSEFIVKVQDINDNPPEFLHETYHANVPERSNVGTSVIQVTASDADDPTYGNSAKLVYSILEGQPYFSVEAQTGIIRTALPNMDREAKEEYHVVIQAKDMGGHMGGLSGTTKVTITLTDVNDNPPKFPQSVYQMSVSEAAVPGEEVGRVKAKDPDIGENGLVTYNIVDGDGMESFEITTDYETQEGVIKLKKPVDFETKRAYSLKVEAANVHIDPKFISNGPFKDTVTVKISVEDADEPPMFLAPSYIHEVQENAAAGTVVGRVHAKDPDAANSPIRYSIDRHTDLDRFFTINPEDGFIKTTKPLDREETAWLNITVFAAEIHNRHQEAKVPVAIRVLDVNDNAPKFAAPYEGFICESDQTKPLSNQPIVTISADDKDDTANGPRFIFSLPPEIIHNPNFTVRDNRDNTAGVYARRGGFSRQKQDLYLLPIVISDGGIPPMSSTNTLTIKVCGCDVNGALLSCNAEAYILNAGLSTGALIAILACIVILLVIVVLFVTLRRQKKEPLIVFEEEDVRENIITYDDEGGGEEDTEAFDIATLQNPDGINGFIPRKDIKPEYQYMPRPGLRPAPNSVDVDDFINTRIQEADNDPTAPPYDSIQIYGYEGRGSVAGSLSSLESATTDSDLDYDYLQNWGPRFKKLADLYGSKDTFDDDS
Turning to B1, the binding entry in experiment [1] is “binds”.

B2: cadherin 11 (CDH11) (endogenous) (protein, UniProt P55287 54-796)
chain: GWVWNQFFVIEEYTGPDPVLVGRLHSDIDSGDGNIKYILSGEGAGTIFVIDDKSGNIHATKTLDREERAQYTLMAQAVDRDTNRPLEPPSEFIVKVQDINDNPPEFLHETYHANVPERSNVGTSVIQVTASDADDPTYGNSAKLVYSILEGQPYFSVEAQTGIIRTALPNMDREAKEEYHVVIQAKDMGGHMGGLSGTTKVTITLTDVNDNPPKFPQSVYQMSVSEAAVPGEEVGRVKAKDPDIGENGLVTYNIVDGDGMESFEITTDYETQEGVIKLKKPVDFETKRAYSLKVEAANVHIDPKFISNGPFKDTVTVKISVEDADEPPMFLAPSYIHEVQENAAAGTVVGRVHAKDPDAANSPIRYSIDRHTDLDRFFTINPEDGFIKTTKPLDREETAWLNITVFAAEIHNRHQEAKVPVAIRVLDVNDNAPKFAAPYEGFICESDQTKPLSNQPIVTISADDKDDTANGPRFIFSLPPEIIHNPNFTVRDNRDNTAGVYARRGGFSRQKQDLYLLPIVISDGGIPPMSSTNTLTIKVCGCDVNGALLSCNAEAYILNAGLSTGALIAILACIVILLVIVVLFVTLRRQKKEPLIVFEEEDVRENIITYDDEGGGEEDTEAFDIATLQNPDGINGFIPRKDIKPEYQYMPRPGLRPAPNSVDVDDFINTRIQEADNDPTAPPYDSIQIYGYEGRGSVAGSLSSLESATTDSDLDYDYLQNWGPRFKKLADLYGSKDTFDDDS
Take B2: the binding entry in experiment [2] was “binds”.
